Measurements from “University of Dundee, Small-Polar-MMV Screening Library” (2021), ChEMBL document CHEMBL3988442.

By UniProt entry, the sequences of proteins in these tests, tags left out.
UniProt I6X8D2, whole entry: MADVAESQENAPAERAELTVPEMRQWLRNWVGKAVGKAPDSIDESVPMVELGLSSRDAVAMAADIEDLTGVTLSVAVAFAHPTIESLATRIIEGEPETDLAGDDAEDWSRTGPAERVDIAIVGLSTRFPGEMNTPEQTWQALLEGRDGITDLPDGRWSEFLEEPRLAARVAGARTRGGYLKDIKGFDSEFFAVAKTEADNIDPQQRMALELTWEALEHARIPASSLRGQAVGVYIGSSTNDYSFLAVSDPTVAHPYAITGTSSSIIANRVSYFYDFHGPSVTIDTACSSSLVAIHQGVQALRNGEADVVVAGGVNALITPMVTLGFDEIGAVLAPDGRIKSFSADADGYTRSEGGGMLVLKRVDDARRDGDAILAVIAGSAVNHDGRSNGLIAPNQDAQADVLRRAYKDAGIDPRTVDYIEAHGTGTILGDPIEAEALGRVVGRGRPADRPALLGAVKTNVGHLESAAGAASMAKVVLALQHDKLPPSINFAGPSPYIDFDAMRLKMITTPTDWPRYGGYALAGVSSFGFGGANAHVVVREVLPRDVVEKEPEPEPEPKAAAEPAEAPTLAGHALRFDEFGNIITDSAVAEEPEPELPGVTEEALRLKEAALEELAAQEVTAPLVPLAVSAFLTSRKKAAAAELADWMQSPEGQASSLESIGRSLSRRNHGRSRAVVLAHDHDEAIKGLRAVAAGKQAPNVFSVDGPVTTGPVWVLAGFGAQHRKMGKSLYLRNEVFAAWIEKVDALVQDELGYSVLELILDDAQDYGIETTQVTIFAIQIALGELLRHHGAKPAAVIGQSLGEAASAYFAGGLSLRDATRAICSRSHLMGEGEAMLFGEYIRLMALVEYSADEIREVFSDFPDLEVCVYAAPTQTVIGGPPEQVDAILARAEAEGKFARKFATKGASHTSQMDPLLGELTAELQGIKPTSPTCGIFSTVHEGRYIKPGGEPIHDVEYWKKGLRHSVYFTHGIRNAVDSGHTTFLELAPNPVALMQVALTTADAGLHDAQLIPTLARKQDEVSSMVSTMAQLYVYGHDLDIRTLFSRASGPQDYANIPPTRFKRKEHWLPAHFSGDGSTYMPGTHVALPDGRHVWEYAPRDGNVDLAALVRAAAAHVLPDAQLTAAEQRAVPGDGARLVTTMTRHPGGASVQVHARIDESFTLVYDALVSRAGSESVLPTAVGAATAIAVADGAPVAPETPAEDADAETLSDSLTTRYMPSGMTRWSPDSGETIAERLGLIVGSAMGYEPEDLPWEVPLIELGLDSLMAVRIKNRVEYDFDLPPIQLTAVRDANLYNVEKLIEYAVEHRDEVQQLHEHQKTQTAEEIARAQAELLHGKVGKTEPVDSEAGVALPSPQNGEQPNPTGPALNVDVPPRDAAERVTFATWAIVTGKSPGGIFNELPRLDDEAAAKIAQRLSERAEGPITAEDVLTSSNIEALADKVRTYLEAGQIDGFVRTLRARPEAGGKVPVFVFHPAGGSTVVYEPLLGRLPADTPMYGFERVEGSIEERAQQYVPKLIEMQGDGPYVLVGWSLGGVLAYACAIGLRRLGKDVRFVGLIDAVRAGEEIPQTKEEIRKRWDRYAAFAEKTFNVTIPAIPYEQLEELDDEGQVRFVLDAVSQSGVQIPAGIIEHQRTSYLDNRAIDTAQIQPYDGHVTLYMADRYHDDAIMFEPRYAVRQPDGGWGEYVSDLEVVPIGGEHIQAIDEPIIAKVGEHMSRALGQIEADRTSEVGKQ

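Polyketide synthase Pks13, Mycobacterium tuberculosis (UniProt I6X8D2). Enzyme assay of the thioesterase domain of polyketide synthase 13; the read-out is not stated. Compounds at 30 µM. Higher reads as stronger inhibition (inferred from which compounds were picked for retests). Of about 67,000 compounds tested this way, about 300 (0.46%) reached 50% or more in at least one test.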

Each number is a percent effect as filed.
How 0% and 100% were set is not recorded. Most values in the screen are low, and negative values occur.
Compounds were drawn at random from those tested, without regard to their results.

SMILES,Percent Effect
CC(=O)N(C)CC(=O)NC(CC(C)C)c1cccs1 (stereo not given),-33.22%
Cc1ccccc1-c1noc(CN2CCOC(Cn3cccn3)C2)n1 (stereo not given),-3.722%
CCN(Cc1ccc2c(c1)OCO2)S(=O)(=O)N(C)C(C)C,-10.73%
CCc1nc(CN2CCCN(C(=O)CC(F)(F)F)CC2)cs1,-8.871%
CC(C)c1csc(C2CCCN(C(=O)c3ccc(=O)n(C)n3)C2)n1 (stereo not given),3.793%
N#CCc1ccc(OCC(=O)NS(=O)(=O)c2ccc(Br)s2)cc1,35.59%
CCCS(=O)(=O)N1CCC(NC(=O)c2cc(C)c(CC)s2)CC1,-19.13%
CCN1CCOC(CNCc2cnc(C(C)(C)C)s2)C1 (stereo not given),-6.627%
Cc1cc(C)n(CC2CN(CC(=O)NC3CCOCC3)CCO2)n1 (stereo not given),-13.77%
Cc1cc(NC(C)c2nnn[nH]2)n2nc(C)c(C)c2n1 (stereo not given),2.004%
Cc1ncnc2c1CCN(C(=O)c1ccsc1)CC2,36.39%
COc1ccccc1NC(=O)CC(C)NCCc1sc(C)nc1C (stereo not given),-7.841%
N#Cc1cccnc1N[C@@H]1c2ccccc2C[C@@H]1O,-18.88%
c1cc(-c2cn3nccc3nc2C2CCCCC2)nc(N2CCCC2)n1,21.73%
CC(=O)N(C)c1nc(Cn2nnnc2C(C)(C)C)cs1,8.852%
c1ccc(C2Cn3ccnc3CN2Cc2ncc[nH]2)cc1 (stereo not given),-6.93%
Cn1ncc2c1CCCC2NCc1cccc(F)c1 (stereo not given),-14.63%
CNc1cncc(C2CCCN2C(=O)c2ccc3oc(=O)n(C)c3c2)n1 (stereo not given),-18.43%
Cc1ccc2c(n1)N(CCn1cccn1)CCN(C(=O)CC1CC1)C2,-9.377%
CC(NC(=O)c1cccc(CN2CCN(C)CC2)c1)c1nccs1 (stereo not given),-3.466%
Cc1ccccc1OCCCC(=O)N(C)CCC#N,31.29%
NC(=O)c1cn[nH]c1C1CCCN1C(=O)c1cnccn1 (stereo not given),-3.204%
COc1cc([C@@H]2N[C@H](c3nccs3)Cc3ccsc32)cc(OC)c1OC,20.85%
Cn1cc(-c2ncnc3c2CCN(C(=O)c2cscn2)CC3)cn1,-26.24%
CC(C)OCc1cccc(CNc2cnn(C)c(=O)c2Cl)c1,-5.491%
CC(C)CC(=O)N1CCCn2cnc(CNS(C)(=O)=O)c2C1,-13.62%
CCn1cncc1C1CC(=O)Nc2c1c(C)nn2C (stereo not given),-52.36%
CSc1ncnc(NCc2ccccc2F)c1C#N,-27.54%
CCNc1c(C#N)c(=O)n(C)c(=O)n1C,-0.1478%
Cn1cc2c(n1)C(CNCC1CCOCC1)OCC2 (stereo not given),15.21%
Nc1cc2c(nn1)CCN(C(=O)c1cccc3c1OCO3)C2,6.947%
Cn1cc(C(=O)N2CCO[C@@H]3CN(C4CCC4)C[C@@H]3C2)cn1,-16.87%
Cc1c(Br)c(C(=O)NC(C)c2ccccc2)nn1C (stereo not given),-24.27%
CC(C)Cn1cc(NC(=O)NC(C)(C)c2nccs2)cn1,-8.257%
Cc1nc(CN2CCc3ccc(S(N)(=O)=O)cc32)oc1C,-36.25%
CNc1nc(C)cc(NC2CCCN(C3Cc4ccccc4C3)C2)n1 (stereo not given),-13.53%
O=S(=O)(Cc1ccccc1)NCc1nnc2n1CCC2,-4.439%
Cc1[nH]nc(CCC(=O)N2C[C@H]3CC[C@@H]2CN(C(=O)N(C)C)C3)c1C,14.47%
O=C(c1ccco1)N1C[C@H]2CCCN(Cc3ccncc3)[C@H]2C1,-3.413%
O=C(O)c1c(-c2cncnc2)ncc2c1CCN(CC1CCOC1)C2 (stereo not given),-5.14%
Cc1ccc(C)c(CC(=O)Nc2cnccc2SCCCO)c1,2.939%
Cc1ccc(-c2ncc(C(=O)NCCNC(=O)C(C)C)s2)c(C)c1,1.538%
COc1ncccc1CN1C[C@@H]2COC[C@]2(COc2cccnc2)C1,9.948%
CCN(C)C(=O)c1ccc2c(c1)C(c1nc[nH]n1)CN2S(C)(=O)=O (stereo not given),-10.47%
CCn1cc(CN2CCCCC2CCn2ccnc2C)cc1C#N (stereo not given),-27.8%
CC(NC(=O)C1=NN(C)C(=O)CC1)c1ccc(F)cc1F (stereo not given),-11.83%
c1ccc2oc(CCCN3CCOC(Cn4cccn4)C3)nc2c1 (stereo not given),-16.26%
CCC(=O)NCC(=O)N(C)C(c1ccc(Cl)cc1)c1cccnc1 (stereo not given),-11.57%

Repeated from the top, 3 entries:

SMILES	Percent Effect
CC(=O)N(C)CC(=O)NC(CC(C)C)c1cccs1 (stereo not given)	-33.22%
Cc1ccccc1-c1noc(CN2CCOC(Cn3cccn3)C2)n1 (stereo not given)	-3.722%
CCN(Cc1ccc2c(c1)OCO2)S(=O)(=O)N(C)C(C)C	-10.73%